Data as given in PubChem BioAssay AID1159578 (Peter MacCallum Cancer Centre, 2015).
Aim: 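siRNA pools altering how lymphatic endothelial cells close a scratch wound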 (primary screen). Cell system: human lymphatic endothelial cells. Reagents: siRNA pool against human genes, 40 nM. Timing: 48 h after transfection. Read-out: 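Cells stained with dye and imaged after a scratch; covered wound area and nuclei counted, duplicates averaged, migration set against mock wells and turned into a robust z-score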. Reading the numbers: migration robust z-score: higher = faster migration into the scratch; nuclei per well: higher = more cells in the well. Hit rule: 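Pools averaging fewer than 3300 nuclei are never called; remaining pools count as changed when migration robust z lies outside -2 to 2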. Meaning of the calls: active = migration changed; inactive = no migration change, or too few cells.
In all, the deposit lists about 18,000 reagents; shown is a part drawn at random. Over the whole deposit, about 1,030 (5.7%) are marked active. 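Inactive calls also include pools with fewer than 3300 nuclei, whose migration was not assessed.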 Raw values vary from plate to plate and are shown uncorrected. Unmarked entries are inactive. Not all columns of the deposit are shown. Reagent sequences are not shown.

The opening 2 entries, ahead of the listing:
gene knocked down | migration robust z-score | nuclei per well, duplicate mean
VEZT | 0.28 | 5508
SMPD1 | -1.14 | 6096

The listing, from the first entry:
gene knocked down | migration robust z-score | nuclei per well, duplicate mean
VEZT | 0.28 | 5508
SMPD1 | -1.14 | 6096
SEMG2 | 1.88 | 4910
H4C13 | 0.3 | 6330
PRKCD | -0.21 | 4676
PPP1R3B | 0.06 | 4980
RBBP9 | 0.02 | 4926
CATSPERE | 0.13 | 6030
PLEKHF2 | 0.12 | 6030
TMCO6 | -0.39 | 4468
STAG3L3 | 1.23 | 6751
IBA57 | -0.36 | 4880
CTNNBL1 | 0.04 | 5574
MANBAL | 0.64 | 5085
IFT20 | -0.76 | 6834
ACER3 | 0.68 | 6682
BRIX1 | 0.26 | 5938
ACTN2 | 1.03 | 4128
SOX13 | 1.42 | 5654
ECHS1 | 1.73 | 5502
ACADL | -0.78 | 6080
ANKRD7 | -0.65 | 5600
RAB8A | -0.91 | 4487
